Measured values as given in article PMC4059916.
No constants are given. Whether binding was seen depends on the method and setting. Binding calls can cover weak binding; strength is not graded here. Sequences can lack the tags named with a protein.

The chains behind the UniProt entries cited, without tags or fusion partners. Where a name states a change or a piece, a line headed by the entry shows the natural chain unless it says otherwise.
UniProt Q13637: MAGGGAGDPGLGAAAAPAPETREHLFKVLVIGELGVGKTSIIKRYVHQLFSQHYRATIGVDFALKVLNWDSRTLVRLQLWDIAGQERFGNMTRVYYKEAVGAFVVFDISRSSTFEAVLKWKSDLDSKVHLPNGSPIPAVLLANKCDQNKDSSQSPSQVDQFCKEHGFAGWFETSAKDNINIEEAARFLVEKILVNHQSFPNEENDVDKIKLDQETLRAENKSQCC

Biological target: GSTRab32(Q85L) mutated at M91/R93 (Switch-II) (UniProt Q13637)
Assay: pull-down; GSTRab32(Q85L) or GST as bait on GSH-sepharose, VARP451-640His6 as prey; 25-50 μg bait, 300 μg prey in 500 μl; 5 mM MgCl2, 0.5 mM TCEP, 100 μM matching nucleotide; 1 hr at 4°C; washes with 1% NP40; Coomassie and anti-His probe blot; both purified

binding: binds
B1: VARP451-640His6 (first ankyrin repeat domain, ANKRD1), wild type (domain or fragment, UniProt Q96NW4 451-640)
chain: PSVVTPFSRDDRGHTPLHVAAVCGQASLIDLLVSKGAMVNATDYHGATPLHLACQKGYQSVTLLLLHYKASAEVQDNNGNTPLHLACTYGHEDCVKALVYYDVESCRLDIGNEKGDTPLHIAARWGYQGVIETLLQNGASTEIQNRLKETPLKCALNSKILSVMEAYHLSFERRQKSSEAPVQSPQRSVD
